Measured values from PubChem BioAssay AID651640 (Broad Institute, 2012).
In all, about 350,000 compounds went through this assay and about 6,000 (1.7%) were called active. The inconclusive results got no clear call from the source; some entries with a clear call stand among them for comparison. Rule as the data show it: active = CPE inhibition above about 20% (passing the limit was not always enough); inconclusive = no clear call, values can overlap the other calls; tested in BHK-21 cells.

Test: protection of cells from dengue 2 killing – plate reader, single concentration, primary screen (AID 651640);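 also: 0% = median of neutral control wells and 100% = median of positive control wells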
Settings: DENV2-infected cells, cytopathic effect rescue, at 9.99 µM, active compounds read high

| SMILES | CPE inhibition |
| --- | --- |
| O=C(Nc1cccc(F)c1)c1ccc(S(=O)(=O)N2CCCCC2)cc1 | active: 114% |
| C[C@H](CO)N1C[C@H](C)[C@@H](CN(C)C(=O)Nc2ccc(C(F)(F)F)cc2)Oc2ccc(NC(=O)NC3CCCCC3)cc2CC1=O | inconclusive: 38.5% |
| COCCOC(=O)N1C(=O)[C@@]2(c3cc(C#CCC(C(=O)OC)C(=O)OC)ccc31)[C@H](c1ccccc1OCCO)N1[C@H](c3ccccc3)[C@H](c3ccccc3)OC(=O)[C@H]1[C@@H]2C(=O)NC[C@H](O)c1ccccc1 | active: 30.5% |
| C[C@H](CO)N1C[C@H](C)[C@H](CN(C)C(=O)C2CCOCC2)Oc2cc(C3=CCCCC3)ccc2S1(=O)=O | inconclusive: 23.1% |
| CN(CC(=O)Nc1ccc(Cl)cc1)C(=O)c1cccc(S(=O)(=O)NCc2ccccc2)c1 | inconclusive: 28% |
| Cc1ccc(C(=O)O/N=C(\N)c2ccccn2)c(C)c1 | inconclusive: 55.7% |
| Cn1c(Cn2c(=O)sc3ccccc32)nnc1SCC(=O)Nc1cccc(F)c1 | inconclusive: 48.3% |
| CN(C(=O)COC(=O)CNC(=O)C1CCCCC1)c1ccccc1 | inconclusive: 29.3% |
| CCCCn1c(=O)c(C(C)=O)c(O)c2ccccc21 | inconclusive: 25.4% |
| Cc1ccc(S(=O)(=O)N(C)C[C@@H]2Oc3ccc(NS(=O)(=O)c4ccc(Cl)cc4)cc3CC(=O)N([C@@H](C)CO)C[C@@H]2C)cc1 | inconclusive: 31.3% |
| Cc1c(C(=O)N(CCC#N)c2ccccc2)sc2nc3n(c(=O)c12)CCCC3 | inconclusive: 41.5% |
| COc1ccc2c3c([nH]c2c1)[C@H](CO)N(C(=O)Nc1ccc(F)cc1)CC31CCN(S(C)(=O)=O)CC1 | inconclusive: 39.5% |
| Cc1ccc(S(=O)(=O)N2CC[C@@H]3[C@H]2c2cc(-c4ccc(C#N)cc4)ccc2N[C@@H]3CO)cc1 | active: 24.3% |
| COC(=O)CCCC1=CC2=C(c3ccccc3)C(=O)C(C)(OC(=O)C3CCCC3)C(=O)C2=CN1CC1CC1 (stereo not drawn) | inconclusive: 44.8% |
| COc1ccc2cc(C(=O)N3CCc4ccccc43)[nH]c2c1 | inconclusive: 29.8% |
| N#Cc1ccc(CN2CCN(CC(=O)Nc3ccccc3C(=O)NC3CC3)CC2)cc1 | inconclusive: 67.6% |
| C[C@@H]1CN([C@@H](C)CO)C(=O)c2cc(N(C)C)ccc2O[C@@H](C)CCCCO[C@@H]1CN(C)C(=O)C1CCCCC1 | inconclusive: 81.4% |
| COc1ccc(NC(=O)N(C)C[C@H]2Oc3ccc(NC(=O)CCN4CCOCC4)cc3C(=O)N([C@@H](C)CO)C[C@@H]2C)cc1 | inactive: -7.15% |

Single entries from above:
COc1ccc2cc(C(=O)N3CCc4ccccc43)[nH]c2c1 – CPE inhibition: inconclusive: 29.8%
COc1ccc2c3c([nH]c2c1)[C@H](CO)N(C(=O)Nc1ccc(F)cc1)CC31CCN(S(C)(=O)=O)CC1 – CPE inhibition: inconclusive: 39.5%
